# Source: patent US20250070172A1, “ANTHRAQUINONE-BASED ACTIVE MATERIAL” (MITSUBISHI HEAVY INDUSTRIES, LTD., priority 2021, published 2025)
# Like-named read-outs stand apart in the source and are kept apart here.
# Experiments:
# [1] = redox flow battery with potassium ferrocyanide as positive electrode active material, cited from earlier work
# [2] = Charge-discharge cycle test in a redox flow battery, compound as negative electrode active material; settings: 100 mA/cm^2, 30° C.
SMILES,Rate of capacity decrease during discharge ([1]; from Figure S7 of the cited document) [%/day],Cell voltage ([1]; from Table S2 of the cited document) [V],"Rate of capacity decrease during discharge ([2]; calculated from capacity in second cycle and 3834th cycle, cutoff 1.4 V / 0.6 V) [%/day]","Cell voltage ([2]; redox flow battery, ferrocyanide/ferricyanide positive electrolyte, negative electrolyte in 1 mol/L KOH, voltage during discharge) [V]"
"O=C1c2ccc(O)cc2C(=O)c2ccc(O)cc21 [Comparative Example 1, 2,6-dihydroxyanthraquinone]",~5,1.20,,
"O=C(O)CCCOc1ccc2c(c1)C(=O)c1ccc(O)cc1C2=O [Example 1, 2-(3′-carboxypropyloxy)-6-hydroxy-9,10-anthraquinone]",,,0.5,1.1
